Results as given in PubChem BioAssay AID504834 (National Center for Advancing Translational Sciences (NCATS), 2011).
Among all 320,000 compounds or so, about 22,000 (6.9%) were called active. Inconclusive means that the source gave no clear call. Such entries were picked first, then a sample of the others. The call rests on the fitted dose curve; in most records, active means well fitted inhibition curve with a large enough effect; inconclusive means small, poorly fitted or top-dose-only effect, or another doubt; inactive means no such curve, though single readings can be large or run the other way. Where the call is inconclusive, the potency comes from a doubtful curve fit.

Assay: Primary qHTS for delayed death inhibitors of the malarial parasite plastid, 96 hour incubation
Conditions: P. falciparum luciferase reporter growth; series mostly up to 28.7 µM
In short: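 Cell-based qHTS: luciferase-tagged P. falciparum in erythrocytes (2% hematocrit, 0.05% parasitemia final) incubated with compounds for 96 hours, 37 C, 5% CO2; luciferase detection reagent then added and luminescence measured.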
On the % scale 0 is the no-effect control and ±100 the full control effect; potency means the concentration at half of the fitted maximal effect.

Compound | Potency | activity change, negative = inhibition
CCN(CC)c1ccc2cc(C(=O)NCc3ccc(F)cc3)c(=N)oc2c1 | active: 1.65 µM | 
O=C(Sc1cccc2cccnc12)c1ccc(F)cc1 | inconclusive: 1.31 µM [inhibitor, full curve, poor fit] | 
CCN(CC)c1ccc(NC(=O)c2ccco2)c(C)c1 | inactive | 
CCOC(=O)N1CCC(NCc2c(C(=O)N(C)Cc3ccccc3)nc3ccccn23)CC1 | inconclusive: 10.4 µM [inhibitor, single point] | 
CCS(=O)(=O)Nc1cccc(C2=NN(S(=O)(=O)c3ccccc3)C(c3ccco3)C2)c1 (configuration not stated) | inconclusive: 5.22 µM [inhibitor, partial curve] | 
O=c1oc2cc(Cl)ccc2n1CSc1nc2ccccc2s1 | inconclusive: 4.65 µM [inhibitor, partial curve, poor fit] | 
NS(=O)(=O)c1ccc(NC(=S)NC(=O)/C=C/c2ccco2)cc1 | inconclusive: 10.4 µM [inhibitor, single point] | 
Cc1cc(C(=O)Nc2ccc(Cl)c(S(=O)(=O)N3CCOCC3)c2)c2ccccc2n1 | inconclusive: 18.5 µM [inhibitor, single point] | 
COc1ccccc1C1CC(c2ccc(Cl)cc2)Nc2ncnn21 (configuration not stated) | inactive | 
Clc1ccc(N/N=C/c2cccnc2)cc1 | inconclusive: 18.5 µM [inhibitor, single point] | 
CC(=O)Nc1cccc(NC(=O)Nc2cccc(Cl)c2C)c1 | inconclusive: 2.62 µM [inhibitor, full curve] | 
COC(=O)CCC(=O)OC1(C)C(=O)C2=CN(C(CO)CO)C(c3ccc(OC)cc3)=CC2=C(Br)C1=O (configuration not stated) | inconclusive: 10.4 µM [inhibitor, single point] | 
Cc1ccc(NNc2c(C)nc3ccccc3nc2=O)cc1 | inactive | 
Cc1ccc2nc(C(Cl)(Cl)Cl)nc(N/N=C/c3ccncc3)c2c1 | inconclusive: 16.5 µM [inhibitor, single point] | 
COc1ccc(-c2cc(C(F)F)n3ncc(C(=O)N4CCN(C(=O)c5ccco5)CC4)c3n2)cc1 | inconclusive: 4.15 µM [inhibitor, single point] | 
Cc1cccc(NS(=O)(=O)c2cccc3nsnc23)c1 | inactive | 
CN=C1CC(SC)=C1c1ccc(C)cc1 | inactive | 
CCOC(=O)Cc1csc(NC(=O)COc2ccc(OC)cc2)n1 | inactive | 
O=C(CCCOc1ccc(Cl)cc1Cl)Nc1ccccc1C(=O)O | inactive | 
CCOc1ccc(Br)cc1C(=O)N/N=C/c1c[nH]c2ccccc12 | inactive | 
O=C(CN1C(=O)CCS(=O)(=O)c2ccccc21)NCc1ccccc1 | active: 2.62 µM | 
CCOC(=O)C(C)Sc1ccc2nnc(-c3ccc(F)cc3)n2n1 (configuration not stated) | inconclusive: 18.5 µM [inhibitor, single point] | 
CCOCCCNC(=O)C(c1ccccc1)N(Cc1cccs1)C(=O)CNC(C)=O (configuration not stated) | inconclusive: 10.4 µM [inhibitor, single point] | 
COc1ccc(C2CC(c3ccc(Cl)cc3)=NN2C(C)=O)cc1 (configuration not stated) | inconclusive: 5.22 µM [inhibitor, partial curve] | 

Compound | Potency | activity change, negative = inhibition
O=C(O)C(Cc1ccccc1)N1C(=O)c2cccc3cccc(c23)C1=O (configuration not stated) | inconclusive: 2.62 µM [inhibitor, full curve] | 
Cc1ccc(N/C(N)=N/c2nc3c(c(=O)[nH]2)CCCC3)c(C)c1 | inactive | 
CCN(CC)S(=O)(=O)c1ccc(NC(=O)COc2nc3ccccc3nc2N2CCOCC2)cc1 | inconclusive: 18.5 µM [inhibitor, single point] | 
CCc1nn(CC(=O)NCCCN2CCCC2=O)c(=O)c2cc3sccc3n12 | inconclusive: 14.7 µM [inhibitor, partial curve, poor fit] | 
Cc1ccc(C2C(C(=O)O)c3ccccc3C(=O)N2C)c(C)c1 (configuration not stated) | inconclusive: 18.5 µM [inhibitor, single point] | 
CCOCCCNC(=O)/C(C#N)=C/c1cc(OC)c(O)c([N+](=O)[O-])c1 |  | inactive: 54.5% [at 1.15 µM]
Nc1nc2c(-c3ccc(Br)cc3)nnn2c2ccccc12 | inactive | 
O=c1[nH]nc(SCc2ccccc2Cl)n1-c1ccc2c(c1)OCCO2 | inconclusive: 11.7 µM [inhibitor, single point] | 
Cc1ccc(S(=O)(=O)Cc2ccc(C(=O)NCCCN3CCCC3=O)o2)cc1 | inactive | 
O=P(/C(=N/O)Sc1ccccc1)(N1CCOCC1)N1CCOCC1 | inactive | 
O=C(NC(=S)NC1CCSC1=O)c1cccc([N+](=O)[O-])c1 (configuration not stated) | inconclusive: 4.15 µM [inhibitor, full curve, poor fit] | 
O=S(=O)(c1cccc2ccccc12)N1CCCCC1 | inconclusive: 13.1 µM [inhibitor, single point] | 
CCOC(=O)c1ccc(N=Cc2c(O)c3ccccc3oc2=O)cc1 | inconclusive: 9.28 µM [inhibitor, single point] | 
CC1=CC(C)(C)N(C(=O)CSc2nnc(N)s2)c2c(C)cc(C)cc21 | inconclusive: 0.262 µM [inhibitor, full curve] | 
Cn1c(SCC(=O)Nc2cc(C(C)(C)C)nn2-c2ccccc2)nc2ccccc21 | inconclusive: 18.5 µM [inhibitor, single point] | 
O=C(Nc1c(F)cccc1F)c1cnc(N2CCN(c3ccccn3)CC2)c2ccccc12 | inconclusive: 13.1 µM [inhibitor, partial curve, poor fit] | 
C/C(=N\NC(=S)NCC(C)(C)C)c1cc(F)cc(F)c1O | inconclusive: 2.94 µM [inhibitor, full curve] | 
CCOc1cc2c(cc1OCC)-n1cccc1C(c1ccc(C)cc1C)NC2 (configuration not stated) | inactive | 
COC(=O)c1ccccc1NC(=O)NN1CCN(C)CC1 | inconclusive: 3.7 µM [inhibitor, partial curve] | 
CC1(N2CCCCC2)CC2(O)C(=[N+]1[O-])CCC/C2=N\O (configuration not stated) | inactive | 
C=CCc1cccc(CNc2c(C)cc(C)cc2C)c1O |  | inactive: 41.5% [at 1.15 µM]
S=c1nc[nH]c2c1sc1nc(-c3ccccc3)c3c(c12)CCCC3 | inconclusive: 0.104 µM [inhibitor, full curve, poor fit] | 
O=c1c2ccccc2nc(/C=C/c2ccccc2F)n1-c1ccccc1O | inconclusive: 5.22 µM [inhibitor, partial curve, poor fit] | 
COc1ccccc1CN1C[C@@H]2C[C@@H](c3ccccc3OC)N3CCC[C@@]23C1=O | inconclusive: 11.7 µM [inhibitor, single point] | 

Filtered by structure: the entries above containing a thiophene ring, fused or not (three)
Compound | Potency | activity change, negative = inhibition
CCOCCCNC(=O)C(c1ccccc1)N(Cc1cccs1)C(=O)CNC(C)=O (configuration not stated) | inconclusive: 10.4 µM [inhibitor, single point] | 
CCc1nn(CC(=O)NCCCN2CCCC2=O)c(=O)c2cc3sccc3n12 | inconclusive: 14.7 µM [inhibitor, partial curve, poor fit] | 
S=c1nc[nH]c2c1sc1nc(-c3ccccc3)c3c(c12)CCCC3 | inconclusive: 0.104 µM [inhibitor, full curve, poor fit] | 

Next entries follow:

Compound | Potency | activity change, negative = inhibition
CCCC(=O)Nc1c(C)n[nH]c1C | active: 0.586 µM | 
CCC1=NNc2cccc3c(OC)ccc1c23 | inconclusive: 18.5 µM [inhibitor, single point] | 
O=C(NC1CCCCCC1)c1ccccc1-c1ccccc1 | inconclusive: 9.28 µM [inhibitor, single point] | 
CCNc1[nH]c(=O)n(C)c(=O)c1N=O | inconclusive: 2.62 µM [inhibitor, single point] | 
COC(=O)CNC(=O)C1CCN(S(=O)(=O)c2cnc[nH]2)CC1 | inconclusive: 14.7 µM [inhibitor, single point] | 
COc1ccc(OC)c(/C=N/NC(=O)c2cc(-c3ccc(C)o3)nc3ccccc23)c1 | inconclusive: 2.62 µM [inhibitor, single point] | 
CC(C)NC(=O)CCn1c(=S)oc2ccccc21 | inconclusive: 5.22 µM [inhibitor, partial curve] | 
CC1CCN(CCCNC(=O)C2CC(=O)N(CCc3ccccc3)C2)CC1 (configuration not stated) | inactive | 
C=CCn1c(C)cc(-c2csc(NC(=O)CCc3nc4ccccc4c(=O)[nH]3)n2)c1C | inactive | 
CN(C(=O)c1ccnn1C)C1CCCN(Cc2ccccc2F)C1 (configuration not stated) | inconclusive: 18.5 µM [inhibitor, single point] | 
Cc1cccc(N2CCN(C(=O)c3cc(S(=O)(=O)N4CCOCC4)cn3C)CC2)c1C | inconclusive: 10.4 µM [inhibitor, partial curve] | 
CCOC(=O)N1CCc2c(sc(NC(=O)c3ccc(S(=O)(=O)N4CCCC4)cc3)c2C#N)C1 | inconclusive: 13.1 µM [inhibitor, partial curve] | 
CC1(C)CC(Cc2nc(=S)[nH][nH]2)C(=O)O1 (configuration not stated) | inactive | 
Cc1cc(Nc2cccc([N+](=O)[O-])c2)n2c(nc3ccccc32)c1C#N | inconclusive: 16.5 µM [inhibitor, single point] | 
COC(=O)c1nnn(-c2nc(N3CCOCC3)nc(N3CCOCC3)n2)c1C | inconclusive: 8.28 µM [inhibitor, partial curve, poor fit] | 
Cc1ccc2c(=O)cc(C(=O)NCCc3ccc(S(N)(=O)=O)cc3)oc2c1C | inactive | 
CCOC(=O)C1=C(C)N=C2SC=C(C)N2C1c1ccc(OC)cc1 (configuration not stated) | inactive | 
CCOC(=O)C1CCCN(C(=O)Nc2ccccc2)C1 (configuration not stated) | inactive | 
COc1ccc(-c2nc(CNS(=O)(=O)c3ccc(OC)c(OC)c3)cs2)cc1 | inactive | 
CN1CCN(c2nc3c(c(=O)n(C)c(=O)n3C)n2Cc2ccc(Cl)cc2)CC1 | active: 0.117 µM | 
CCOC(=O)CNC(c1ccccc1)c1cc(Br)ccc1NC(=O)CCN1CCOCC1 (configuration not stated) | inconclusive: 3.7 µM [inhibitor, single point] | 
O=C(Cn1cc(Cl)c([N+](=O)[O-])n1)NCCC1=CCCCC1 | inconclusive: 9.28 µM [inhibitor, partial curve] | 
O=C(Nc1ccnn1C1CCN(Cc2cc(Cl)ccc2O)CC1)C1CC1 | inconclusive: 18.5 µM [inhibitor, single point] | 
COc1cccc(C(=O)COc2ccc3ccc(=O)oc3c2)c1 | inactive | 
